Measured values published in paper PMC11625884.
No constants are given. Whether binding was seen depends on the method and setting. In cells and extracts the contact can be indirect. Some results given as binding are weak or reduced against the parent protein; the word gives no strength.

By UniProt entry, the sequences of proteins in these tests, tags left out.
UniProt Q9C0C7: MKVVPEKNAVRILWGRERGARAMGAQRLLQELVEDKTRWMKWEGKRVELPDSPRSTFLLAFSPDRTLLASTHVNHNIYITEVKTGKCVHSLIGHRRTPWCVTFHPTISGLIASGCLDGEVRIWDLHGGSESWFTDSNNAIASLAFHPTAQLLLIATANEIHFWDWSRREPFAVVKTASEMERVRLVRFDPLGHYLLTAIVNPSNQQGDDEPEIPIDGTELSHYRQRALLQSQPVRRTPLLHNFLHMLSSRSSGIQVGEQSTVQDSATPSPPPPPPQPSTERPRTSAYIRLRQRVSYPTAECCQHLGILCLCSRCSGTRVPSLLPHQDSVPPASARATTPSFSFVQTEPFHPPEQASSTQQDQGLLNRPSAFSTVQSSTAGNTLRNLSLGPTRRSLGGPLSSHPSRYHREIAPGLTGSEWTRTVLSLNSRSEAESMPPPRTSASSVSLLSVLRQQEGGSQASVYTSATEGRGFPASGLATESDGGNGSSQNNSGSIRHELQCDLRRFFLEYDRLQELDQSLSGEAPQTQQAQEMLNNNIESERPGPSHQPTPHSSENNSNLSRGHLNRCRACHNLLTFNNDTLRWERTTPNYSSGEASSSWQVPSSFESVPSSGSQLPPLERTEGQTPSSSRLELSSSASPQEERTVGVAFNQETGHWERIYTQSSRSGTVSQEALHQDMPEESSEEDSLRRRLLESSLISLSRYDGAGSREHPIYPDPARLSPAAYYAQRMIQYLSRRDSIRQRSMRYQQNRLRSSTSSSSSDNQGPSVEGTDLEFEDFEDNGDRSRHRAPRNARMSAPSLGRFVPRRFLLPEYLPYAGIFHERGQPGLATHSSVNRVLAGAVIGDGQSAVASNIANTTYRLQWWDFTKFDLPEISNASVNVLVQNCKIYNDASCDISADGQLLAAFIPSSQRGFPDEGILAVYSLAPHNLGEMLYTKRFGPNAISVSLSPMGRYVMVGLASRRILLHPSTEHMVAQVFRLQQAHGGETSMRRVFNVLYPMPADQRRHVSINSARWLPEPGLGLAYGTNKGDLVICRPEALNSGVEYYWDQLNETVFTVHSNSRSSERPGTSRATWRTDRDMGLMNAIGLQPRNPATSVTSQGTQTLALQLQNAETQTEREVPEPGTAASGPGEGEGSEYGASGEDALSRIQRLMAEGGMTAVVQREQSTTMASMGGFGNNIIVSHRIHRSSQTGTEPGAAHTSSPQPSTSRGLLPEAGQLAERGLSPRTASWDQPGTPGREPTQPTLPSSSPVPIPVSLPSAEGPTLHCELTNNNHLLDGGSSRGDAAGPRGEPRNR
UniProt P63167: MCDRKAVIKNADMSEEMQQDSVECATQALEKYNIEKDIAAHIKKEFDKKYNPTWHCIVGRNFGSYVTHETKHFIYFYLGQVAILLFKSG

Target: AMBRA1^WT (activating molecule in Beclin1-regulated autophagy, wild type) (UniProt Q9C0C7)
Experiment: co-IP; AMBRA1 antibody (Proteintech) coupled to Dynabeads, mixed with lysate of SHSY5Y cells overexpressing AMBRA1 constructs; washed; western blot for the protein of interest

binding: binds
Substance: dynein light chain (DLC)1 (from UniProt P63167 1-89)
